Consider 33 targets from the supplement of paper PMC10849652.

Sequences of proteins named here, by UniProt entry; tags and fusion partners are left off. A change or cut given only in a name is not applied to a line headed by its entry.
UniProt Q9NYA4: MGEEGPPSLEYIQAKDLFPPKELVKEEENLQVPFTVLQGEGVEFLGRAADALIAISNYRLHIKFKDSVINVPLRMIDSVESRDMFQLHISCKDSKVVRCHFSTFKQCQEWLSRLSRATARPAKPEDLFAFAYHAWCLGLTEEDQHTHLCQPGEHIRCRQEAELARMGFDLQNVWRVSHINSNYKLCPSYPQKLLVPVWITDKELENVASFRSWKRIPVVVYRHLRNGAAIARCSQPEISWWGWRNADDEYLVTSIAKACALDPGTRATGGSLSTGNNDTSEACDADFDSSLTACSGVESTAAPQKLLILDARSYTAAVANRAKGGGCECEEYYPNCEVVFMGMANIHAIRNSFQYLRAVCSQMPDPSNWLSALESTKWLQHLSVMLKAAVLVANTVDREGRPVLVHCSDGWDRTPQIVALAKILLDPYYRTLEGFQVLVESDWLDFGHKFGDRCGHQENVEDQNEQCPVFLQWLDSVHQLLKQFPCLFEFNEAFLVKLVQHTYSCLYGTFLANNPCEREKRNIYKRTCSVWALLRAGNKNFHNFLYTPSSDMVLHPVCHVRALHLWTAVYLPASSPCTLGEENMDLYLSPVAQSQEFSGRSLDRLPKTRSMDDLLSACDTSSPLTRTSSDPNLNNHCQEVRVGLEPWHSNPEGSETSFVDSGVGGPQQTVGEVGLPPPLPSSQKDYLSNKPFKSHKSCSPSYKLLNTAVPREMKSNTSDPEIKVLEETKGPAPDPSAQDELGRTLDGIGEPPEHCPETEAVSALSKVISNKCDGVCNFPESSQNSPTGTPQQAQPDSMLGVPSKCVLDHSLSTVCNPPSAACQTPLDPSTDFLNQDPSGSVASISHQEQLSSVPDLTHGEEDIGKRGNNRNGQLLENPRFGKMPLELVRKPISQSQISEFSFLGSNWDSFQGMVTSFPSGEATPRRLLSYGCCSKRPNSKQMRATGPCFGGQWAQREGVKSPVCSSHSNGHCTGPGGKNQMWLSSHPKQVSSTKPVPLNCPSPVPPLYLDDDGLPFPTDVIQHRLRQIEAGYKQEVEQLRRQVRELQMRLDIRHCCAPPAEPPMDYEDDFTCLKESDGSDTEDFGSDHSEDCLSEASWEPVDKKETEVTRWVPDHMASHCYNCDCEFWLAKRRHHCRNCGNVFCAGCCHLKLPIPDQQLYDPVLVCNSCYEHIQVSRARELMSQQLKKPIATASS
UniProt Q9BT17: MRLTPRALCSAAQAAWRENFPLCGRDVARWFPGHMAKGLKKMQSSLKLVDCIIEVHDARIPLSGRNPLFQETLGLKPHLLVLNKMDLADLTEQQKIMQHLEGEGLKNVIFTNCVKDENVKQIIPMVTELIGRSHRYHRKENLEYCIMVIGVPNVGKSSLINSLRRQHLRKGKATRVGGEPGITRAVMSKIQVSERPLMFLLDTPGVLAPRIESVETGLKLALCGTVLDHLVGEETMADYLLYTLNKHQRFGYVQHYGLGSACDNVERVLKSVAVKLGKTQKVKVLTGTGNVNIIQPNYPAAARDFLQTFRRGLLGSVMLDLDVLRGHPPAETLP
UniProt Q96EF0: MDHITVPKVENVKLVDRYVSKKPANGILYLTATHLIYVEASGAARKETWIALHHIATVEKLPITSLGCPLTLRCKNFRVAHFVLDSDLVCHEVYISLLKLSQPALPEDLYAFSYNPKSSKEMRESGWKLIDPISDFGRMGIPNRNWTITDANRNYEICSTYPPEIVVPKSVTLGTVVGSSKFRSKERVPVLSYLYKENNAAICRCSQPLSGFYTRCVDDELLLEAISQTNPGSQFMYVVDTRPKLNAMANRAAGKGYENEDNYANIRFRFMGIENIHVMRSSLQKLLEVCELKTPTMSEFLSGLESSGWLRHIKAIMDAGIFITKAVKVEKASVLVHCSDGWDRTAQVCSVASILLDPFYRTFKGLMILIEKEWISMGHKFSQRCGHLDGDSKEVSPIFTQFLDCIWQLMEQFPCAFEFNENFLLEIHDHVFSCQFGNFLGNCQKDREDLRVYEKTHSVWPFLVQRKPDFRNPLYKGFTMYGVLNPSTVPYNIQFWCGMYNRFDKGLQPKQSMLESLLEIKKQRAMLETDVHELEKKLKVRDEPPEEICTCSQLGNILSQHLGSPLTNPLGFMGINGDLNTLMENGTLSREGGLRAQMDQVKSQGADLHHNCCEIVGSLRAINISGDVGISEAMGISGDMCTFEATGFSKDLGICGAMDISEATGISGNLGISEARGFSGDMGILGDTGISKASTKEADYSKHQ
UniProt Q6P1R3: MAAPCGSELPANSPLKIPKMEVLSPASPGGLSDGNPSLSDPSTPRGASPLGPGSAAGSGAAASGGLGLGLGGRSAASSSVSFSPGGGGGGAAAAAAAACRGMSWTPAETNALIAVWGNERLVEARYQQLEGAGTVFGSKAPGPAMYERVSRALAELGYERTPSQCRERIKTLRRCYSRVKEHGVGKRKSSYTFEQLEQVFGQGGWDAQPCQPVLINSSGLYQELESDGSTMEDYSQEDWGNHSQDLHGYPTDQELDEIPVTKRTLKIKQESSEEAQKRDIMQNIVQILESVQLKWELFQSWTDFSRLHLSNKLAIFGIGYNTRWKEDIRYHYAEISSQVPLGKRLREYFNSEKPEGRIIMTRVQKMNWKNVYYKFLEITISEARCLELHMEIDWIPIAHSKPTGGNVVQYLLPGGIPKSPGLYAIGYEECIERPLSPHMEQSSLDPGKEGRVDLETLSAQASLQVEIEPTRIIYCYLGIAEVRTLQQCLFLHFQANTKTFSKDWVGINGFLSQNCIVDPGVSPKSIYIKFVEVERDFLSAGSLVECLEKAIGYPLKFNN
UniProt O75570: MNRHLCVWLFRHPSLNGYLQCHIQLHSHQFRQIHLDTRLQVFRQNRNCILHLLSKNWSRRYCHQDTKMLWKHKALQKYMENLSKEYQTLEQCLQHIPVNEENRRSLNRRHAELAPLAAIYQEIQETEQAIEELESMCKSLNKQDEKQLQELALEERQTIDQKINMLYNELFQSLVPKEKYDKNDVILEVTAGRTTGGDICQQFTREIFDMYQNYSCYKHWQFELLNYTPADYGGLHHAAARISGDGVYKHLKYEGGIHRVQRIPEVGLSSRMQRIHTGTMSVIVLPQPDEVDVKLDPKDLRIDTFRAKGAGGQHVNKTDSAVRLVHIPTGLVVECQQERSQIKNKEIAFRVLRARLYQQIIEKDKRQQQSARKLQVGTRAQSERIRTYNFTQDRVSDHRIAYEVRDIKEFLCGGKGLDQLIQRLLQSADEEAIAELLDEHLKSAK
UniProt Q93083: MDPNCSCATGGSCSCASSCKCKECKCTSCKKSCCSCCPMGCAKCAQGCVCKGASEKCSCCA
UniProt Q9HCI7: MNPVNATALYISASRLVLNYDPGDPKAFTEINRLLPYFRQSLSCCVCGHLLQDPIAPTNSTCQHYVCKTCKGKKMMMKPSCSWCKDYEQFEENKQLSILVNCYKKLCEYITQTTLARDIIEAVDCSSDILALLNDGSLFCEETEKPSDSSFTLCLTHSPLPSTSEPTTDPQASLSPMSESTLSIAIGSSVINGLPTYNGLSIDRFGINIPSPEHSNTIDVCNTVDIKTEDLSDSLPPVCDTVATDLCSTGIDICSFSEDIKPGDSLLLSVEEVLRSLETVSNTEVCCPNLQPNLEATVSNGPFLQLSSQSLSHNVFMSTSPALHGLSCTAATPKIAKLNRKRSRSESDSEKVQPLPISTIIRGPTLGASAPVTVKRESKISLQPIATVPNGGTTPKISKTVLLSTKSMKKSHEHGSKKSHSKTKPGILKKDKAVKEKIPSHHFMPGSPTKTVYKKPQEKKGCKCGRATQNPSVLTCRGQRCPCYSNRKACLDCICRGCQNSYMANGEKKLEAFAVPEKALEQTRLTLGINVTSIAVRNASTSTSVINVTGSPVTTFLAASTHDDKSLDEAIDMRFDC
UniProt O94776: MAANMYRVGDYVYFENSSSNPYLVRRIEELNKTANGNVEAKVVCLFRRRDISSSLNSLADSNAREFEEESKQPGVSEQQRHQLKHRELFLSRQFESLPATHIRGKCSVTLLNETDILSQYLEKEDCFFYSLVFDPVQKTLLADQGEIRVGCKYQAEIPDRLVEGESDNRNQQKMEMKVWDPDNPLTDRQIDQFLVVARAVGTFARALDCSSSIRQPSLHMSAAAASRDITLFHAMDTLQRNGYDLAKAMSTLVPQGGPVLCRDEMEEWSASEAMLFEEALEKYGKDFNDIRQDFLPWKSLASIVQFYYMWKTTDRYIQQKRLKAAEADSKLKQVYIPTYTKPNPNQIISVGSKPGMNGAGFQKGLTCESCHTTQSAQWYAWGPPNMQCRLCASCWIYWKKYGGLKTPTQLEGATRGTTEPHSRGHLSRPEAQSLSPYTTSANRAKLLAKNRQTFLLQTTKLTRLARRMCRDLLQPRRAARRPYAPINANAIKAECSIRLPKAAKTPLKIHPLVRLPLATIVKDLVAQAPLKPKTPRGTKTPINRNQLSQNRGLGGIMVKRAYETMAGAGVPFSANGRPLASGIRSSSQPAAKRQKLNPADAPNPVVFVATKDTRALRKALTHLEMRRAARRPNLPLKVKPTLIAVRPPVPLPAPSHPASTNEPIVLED
UniProt Q2M296: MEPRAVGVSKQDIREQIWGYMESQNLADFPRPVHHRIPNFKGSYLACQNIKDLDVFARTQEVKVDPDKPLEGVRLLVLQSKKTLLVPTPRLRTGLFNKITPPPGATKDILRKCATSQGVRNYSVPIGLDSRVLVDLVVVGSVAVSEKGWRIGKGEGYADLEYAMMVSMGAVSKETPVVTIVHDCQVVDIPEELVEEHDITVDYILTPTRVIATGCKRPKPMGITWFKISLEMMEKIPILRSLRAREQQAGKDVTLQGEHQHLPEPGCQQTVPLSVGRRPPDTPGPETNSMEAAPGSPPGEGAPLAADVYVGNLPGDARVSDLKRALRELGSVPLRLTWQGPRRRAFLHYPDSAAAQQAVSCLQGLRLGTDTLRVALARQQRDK
UniProt P00414, whole entry, looked up: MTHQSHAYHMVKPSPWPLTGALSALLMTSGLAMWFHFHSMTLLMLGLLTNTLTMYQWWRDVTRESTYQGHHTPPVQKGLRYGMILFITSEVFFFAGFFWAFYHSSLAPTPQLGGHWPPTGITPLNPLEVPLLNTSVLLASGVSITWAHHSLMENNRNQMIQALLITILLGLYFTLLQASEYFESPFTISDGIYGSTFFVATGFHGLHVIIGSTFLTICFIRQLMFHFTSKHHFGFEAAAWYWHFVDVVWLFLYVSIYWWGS
UniProt Q96HJ5: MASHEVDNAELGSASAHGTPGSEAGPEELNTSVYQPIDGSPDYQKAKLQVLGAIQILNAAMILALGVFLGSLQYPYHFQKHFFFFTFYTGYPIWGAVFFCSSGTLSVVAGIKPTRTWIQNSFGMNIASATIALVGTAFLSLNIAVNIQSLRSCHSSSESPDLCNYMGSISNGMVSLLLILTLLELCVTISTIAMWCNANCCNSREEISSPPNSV
UniProt P03923, whole entry, looked up: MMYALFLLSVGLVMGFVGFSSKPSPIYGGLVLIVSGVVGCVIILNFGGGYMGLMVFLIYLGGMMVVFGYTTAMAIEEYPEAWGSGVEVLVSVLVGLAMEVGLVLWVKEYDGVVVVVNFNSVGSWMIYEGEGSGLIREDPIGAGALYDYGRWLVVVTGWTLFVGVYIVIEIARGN
UniProt Q8N5Y2: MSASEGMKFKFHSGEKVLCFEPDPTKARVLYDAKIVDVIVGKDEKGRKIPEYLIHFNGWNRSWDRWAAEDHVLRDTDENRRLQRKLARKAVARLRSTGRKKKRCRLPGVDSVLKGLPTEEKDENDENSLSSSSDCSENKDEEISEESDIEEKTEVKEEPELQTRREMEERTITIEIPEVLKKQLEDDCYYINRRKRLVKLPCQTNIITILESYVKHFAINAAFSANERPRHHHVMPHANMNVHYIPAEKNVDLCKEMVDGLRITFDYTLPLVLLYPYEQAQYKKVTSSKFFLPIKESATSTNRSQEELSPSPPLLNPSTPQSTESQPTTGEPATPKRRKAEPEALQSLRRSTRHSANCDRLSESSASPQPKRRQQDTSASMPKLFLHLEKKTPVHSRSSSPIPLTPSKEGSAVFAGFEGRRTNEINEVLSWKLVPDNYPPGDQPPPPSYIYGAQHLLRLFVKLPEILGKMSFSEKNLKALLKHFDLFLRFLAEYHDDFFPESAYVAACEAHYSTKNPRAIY
UniProt Q49AM1: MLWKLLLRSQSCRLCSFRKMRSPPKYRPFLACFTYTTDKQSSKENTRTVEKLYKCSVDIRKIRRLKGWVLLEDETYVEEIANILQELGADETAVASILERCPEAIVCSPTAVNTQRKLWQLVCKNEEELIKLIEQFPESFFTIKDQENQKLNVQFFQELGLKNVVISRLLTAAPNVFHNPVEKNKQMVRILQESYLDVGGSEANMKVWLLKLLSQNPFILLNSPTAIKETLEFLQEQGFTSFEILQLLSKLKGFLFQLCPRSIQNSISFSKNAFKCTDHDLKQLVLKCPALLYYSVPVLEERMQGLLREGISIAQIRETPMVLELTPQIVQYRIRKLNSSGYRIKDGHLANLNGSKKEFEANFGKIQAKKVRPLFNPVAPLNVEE

Some of the results follow.

What all share (experiment): log2 fold change, soluble protein after heating vs DMSO (PISA); higher = thermal stabilisation; K562 lysate, 10 uM; active = over 0.2 and 3.5 SD of the protein, either way, in both replicates (recomputed)
Compound in test [1]: CC1=C2C(=CC=C1)N=C(N(C2=O)C3=CC=CC=C3C)CN4C=NC5=C(N=CN=C54)N
In short, it runs like this:
(§1)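 Quantification was by TMTpro 16plex LC-MS/MS with equalised channel sums, applied to the supernatant after 21,000xg for 90 min. Samples were crude K562 extract at 1 mg/mL protein in PBS pH 7.4 with 1 mM MgCl2, treated with 10 μM compound for 30 min, heated for 3 min across 48°C-58°C, pooled and brought to 0.5% NP-40 at 4°C. Values are log-two fold changes in thermal stability relative to solvent controls, from duplicates.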

Compound in test [2]: Cc1sc2c(c1C)C(c1ccc(Cl)cc1)=N[C@@H](CC(=O)OC(C)(C)C)c1nnc(C)n1-2
In short, it runs like this:
as §1

Compound in test [3]: c1ccc([C@@H]2C[C@H]2NC2CCNCC2)cc1
The essentials: as §1

Compound in test [4]: C1=CC=C(C=C1)[C@H](COC2=CC3=C(C=C2)NC(=O)N3)NC(=O)C4=CC=CN(C4=O)CC5=CC(=C(C=C5)F)F
In short, it runs like this:
as §1

Compound in test [5]: CC1=C(SC2=C1C(=N[C@H](C3=NN=C(N32)C)CC(=O)N)C4=CC=C(C=C4)Cl)C
In short, it runs like this:
as §1

Consider MRPL24 (UniProt Q96A35), for which the log2 fold change was inactive: 0.054 in test [1], inactive: 0.067 in test [2] and inactive: 0.083 in test [3].
MTMR4 (UniProt Q9NYA4): the log2 fold change in test [1] is inactive: -0.056; in test [2] it was inactive: 0.111; in test [3], inactive: -0.031.
On to MTG1 (UniProt Q9BT17), for which the log2 fold change in test [3] was inactive: 0.008.
Take MSH5 isoform 3 (UniProt O43196): the log2 fold change in test [2] is inactive: 0.069.
Turning to MRPL38 (UniProt Q96DV4), the log2 fold change in test [4] is inactive: 0.006; in test [5], inactive: 0.066; in test [1] it was inactive: -0.002; in test [2], inactive: -0.037; in test [3] it was inactive: 0.068.
On to MTMR8 (UniProt Q96EF0), for which the log2 fold change in test [4] is inactive: 0.028; in test [5], inactive: 0.087; in test [2] it was inactive: 0.219.
On to MUC19 (UniProt Q7Z5P9), for which the results for the log2 fold change in test [4], in test [5] and in test [3] were inactive: 0.339, inactive: 0.181 and inactive: -0.004, respectively.
MRPL30 isoform 2 (UniProt Q8TCC3): the log2 fold change in test [4] was inactive: 0.086; in test [5] it was inactive: -0.056; in test [2], inactive: -0.102; in test [3] it was inactive: 0.476.
As to MSANTD2 (UniProt Q6P1R3), the log2 fold change in test [1] was inactive: -0.024; in test [2], inactive: 0.292; in test [3], inactive: 0.353.
Regarding MUC1, A0A087WWM1, the log2 fold change in test [4] is inactive: -0.045; in test [5], inactive: -0.082; in test [1], inactive: -0.004; in test [2], inactive: -0.065; in test [3], inactive: 0.015.
As to MTMR10 (UniProt Q9NXD2), in test [2], the log2 fold change is inactive: -0.077.
In the case of MRPS35 (UniProt P82673), the log2 fold change in test [4] was inactive: 0.034; in test [5] it was inactive: -0.023; in test [1], inactive: 0.009; in test [2], inactive: 0.033; in test [3] it was inactive: 0.039.
As for MTRF1 isoform 2 (UniProt O75570), in test [3], the log2 fold change is inactive: -0.062.
With MTSS1 isoform 5 (UniProt O43312), in test [2], the log2 fold change was inactive: 0.161.
Consider MT1L (UniProt Q93083), for which the figures for the log2 fold change in test [4], in test [5] and in test [3] were inactive: 0.083, inactive: 0.011 and inactive: -0.068, respectively.
On to MRPL37 (UniProt Q9BZE1), for which the log2 fold change in test [4] was inactive: 0.004; in test [5], inactive: -0.014; in test [1], inactive: 0.035; in test [2] it was inactive: 0.009; in test [3], inactive: -0.007.
Turning to MSL2 (UniProt Q9HCI7), the log2 fold change in test [1] was inactive: 0.049.
Consider MRPS2 (UniProt Q9Y399), for which the log2 fold change in test [1] was inactive: 0.063; in test [2], inactive: 0.047; in test [3], inactive: 0.036.
On to MRPL27 (UniProt Q9P0M9), for which the log2 fold change was inactive: 0.002 in test [4], inactive: -0.046 in test [5], inactive: -0.048 in test [2] and inactive: 0.208 in test [3].
For MTF1 (UniProt Q14872), the log2 fold change in test [3] was inactive: 0.122.
On to MTA2 (UniProt O94776), for which the log2 fold change is inactive: 0 in test [4]; inactive: 0.015 in test [5]; inactive: -0.004 in test [1]; inactive: 0.015 in test [2]; inactive: 0.031 in test [3].
For MTHFSD (UniProt Q2M296), the log2 fold change in test [4] is inactive: -0.055; in test [5], inactive: 0.013; in test [2], inactive: 0.125.
In the case of MT-CO3 (UniProt P00414), the figures for the log2 fold change in test [1], in test [2] and in test [3] were inactive: 0.088, inactive: 0.315 and inactive: -0.169, respectively.
For MRPL34 (UniProt Q9BQ48), the log2 fold change was inactive: -0.003 in test [4], inactive: 0.055 in test [5], inactive: 0.107 in test [2] and inactive: -0.023 in test [3].
With MS4A3 (UniProt Q96HJ5), in test [1], the log2 fold change is inactive: 0.088.
MTPAP (UniProt Q9NVV4): the log2 fold change in test [1] is inactive: -0.034; in test [2] it was inactive: 0.083; in test [3], inactive: 0.029.
For the target MT-ND6 (UniProt P03923), the log2 fold change in test [3] is inactive: -0.036.
With MSL3 (UniProt Q8N5Y2), the results for the log2 fold change in test [1], in test [2] and in test [3] were inactive: -0.002, inactive: 0.189 and inactive: 0.142, respectively.
For the target MTURN (UniProt Q8N3F0), the log2 fold change in test [2] was inactive: 0.046.
Consider MRPS23 (UniProt Q9Y3D9), for which the log2 fold change in test [4] is inactive: -0.021; in test [5], inactive: 0; in test [1], inactive: 0.026; in test [2] it was inactive: 0.037; in test [3], inactive: 0.198.
With MRPS15 (UniProt P82914), the log2 fold change is inactive: -0.026 in test [4], inactive: 0.086 in test [5], inactive: -0.059 in test [2] and inactive: -0.028 in test [3].
For MTFMT (UniProt Q96DP5), the figures for the log2 fold change in test [2] and in test [3] were inactive: 0.25 and inactive: 0.074, respectively.
MTERF2 (UniProt Q49AM1): the log2 fold change in test [2] is inactive: -0.254.
